{"source": "patent US7037502B2", "about": "“Peptide with the amino acid sequence of KVLDGQDP having anti-inflammatory properties” (priority 2001, dated 2006)", "key": {"[1]": {"test_system": "eosinophil infiltration of conjunctiva", "test": "Allergic conjunctivitis to ragweed in guinea pig: histology, eosinophil count in conjunctiva", "format": "in vivo, Hartley female guinea pig", "conditions": "n=12, P<0.01, SD<10%, Mann-Whitney test", "protocol": "The peptides of the present invention were analyzed in experimental model of allergic conjunctivitis to ragweed (giant ragweed; Ambrosia trifida) in guinea pig. Hartley strain of guinea pig was selected according to previous reports of conjunctival anaphylaxis (Calonge M., et al., Acta Ophthalmol 68; 470–476, 1990) and females were chosen based on the sex dimorphism of ocular mucosal immunity with the protective role of male hormones (Saruya S., et al., Act Soc Ophthalmol Jap 72; 833–845, 1968). The conjunctival redness and edema are main signs of seasonal allergic conjunctivitis and eosionphil infiltration is the hallmark of the conjunctival histology in patients with allergic conjunctivitis (Abelson M B., et al., Arch Ophthalmol. 101; 555–556, 1983; Butrus S I., et al., Int. Ophthalmol. Clin. 28; 324–328, 1988)\n86 Hartley female guinea pigs, 200–250 g were housed in the animal facilities of the Asan Institute for Life Sciences (Korea), given guinea pig chow and water ad libitum, and cared for in accordance with the Declaration of Helsinki and the National Institute of Health Guide to the Care and Use of the Laboratory Animals (Korea). […]\nEosinophils in the standardized fields of conjunctival epithelium, the immediate subepithelial, and the stroma were counted in three non-consecutive fields (magnification ×400) for each treatment in each experiment (12 eyes in each group)."}, "[2]": {"test_system": "allergic conjunctivitis to ragweed (Ambrosia trifida)", "test": "Allergic conjunctivitis to ragweed in guinea pig: clinical scores (conjunctival edema and redness)", "format": "in vivo, Hartley female guinea pig", "conditions": "n=12, P<0.01, SD<10%, Mann-Whitney test", "protocol": "The peptides of the present invention were analyzed in experimental model of allergic conjunctivitis to ragweed (giant ragweed; Ambrosia trifida) in guinea pig. Hartley strain of guinea pig was selected according to previous reports of conjunctival anaphylaxis (Calonge M., et al., Acta Ophthalmol 68; 470–476, 1990) and females were chosen based on the sex dimorphism of ocular mucosal immunity with the protective role of male hormones (Saruya S., et al., Act Soc Ophthalmol Jap 72; 833–845, 1968). […] The evaluation was performed in a masked fashion at 20 min after allergen challenge and each clinical sign was scored on a scale 0–4+ (0 absent, 1+ minimal, 2+ mild, 3+ moderate, 4+ severe), adapted for guinea pig from previous report (Merayo-Lloves et al: Experimental model of allergic conjunctivitis to ragweed in guinea pig. Curr. Eye Res. 14; 487–494, 1995). Clinical scores of each group (12 eyes in each group) were analyzed."}}, "note": "For at least one compound, name, drawing or mass did not settle the structure.", "data": [{"smiles": "C[C@@H]1C[C@H]2[C@@H]3CCC4=CC(=O)C=C[C@]4(C)[C@@]3(F)[C@@H](O)C[C@]2(C)[C@@]1(O)C(=O)CO", "note": "[Dexamethasone, dexamethasone]", "values": [{"measurement": "Histological signs (eosinophil infiltration), result in words", "setting": "[1]", "value": "statistically significant difference from other groups"}, {"measurement": "Clinical signs (conjunctival redness and edema scores), result in words", "setting": "[2]", "value": "statistically significant difference from other groups"}]}]}
